Data reported in patent US20220281997A1.
No constants are given. Whether binding was seen depends on the method and setting. Some results given as binding are weak or reduced against the parent protein; the word gives no strength.

Tests used:
[1] = molecular target: AS673 VHH (camel-derived); experiment: SPR, Biacore 8K; VHH-His captured on anti-His antibody chip
[2] = molecular target: AS588 VHH (camel-derived); experiment: as above
[3] = molecular target: AS325 VHH (camel-derived); experiment: as above
[4] = molecular target: AS519 VHH (camel-derived); experiment: as above
[5] = molecular target: AS587 VHH (camel-derived); experiment: as above
[6] = molecular target: AS988 VHH (camel-derived); experiment: as above
[7] = molecular target: AS656 VHH (camel-derived); experiment: as above
[8] = molecular target: His-tag camel-derived nanobody AS718 VHH-His (camel-derived); experiment: indirect ELISA, AS718 VHH-His coated, hybridoma supernatant
[9] = molecular target: AS673 VHH (camel-derived); experiment: indirect ELISA, VHH coated
[10] = molecular target: AS588 VHH (camel-derived); experiment: indirect ELISA, VHH coated
[11] = molecular target: AS325 VHH (camel-derived); experiment: indirect ELISA, VHH coated
[12] = molecular target: AS519 VHH (camel-derived); experiment: indirect ELISA, VHH coated
[13] = molecular target: AS587 VHH (camel-derived); experiment: indirect ELISA, VHH coated
[14] = molecular target: AS988 VHH (camel-derived); experiment: indirect ELISA, VHH coated
[15] = molecular target: AS656 VHH (camel-derived); experiment: indirect ELISA, VHH coated

Measured: binding

B1: R166.C5 (antibody, V domains shown)
VH: QSVEESGGRLVTPGTPLTLTCTVSGFSLRNFAMSWVRQAPGKGLEWIGIIYSGGTRDYATWAKGRFTISKTSTTVDLKMTSPTTEDTATYFCARDRSPDYSAAFLLWGQGTLVTVSS
VL: IVMTQTPSSKSVPVGDTVTINCQASESVYSNNHLAWFQQKPGQPPKLLIYSASTLESGVPSRFKGSGSGTQFTLTISGVQCDDAATYYCAGYKSSDTDGTSFGGGTEVVVKG
binds: [1] | [2] | [3] | [4] | [5] | [6] | [7] | [8] | [9] | [10] | [11] | [12] | [13] | [14] | [15]
